In paper PMC9795356:
These are yes or no findings as the source states them, for the method shown. In cells and extracts the contact can be indirect. These calls come from enrichment with a bait or labelling near it, and not all partners need be listed. No binding means not detected with the bait. Tags and fused reporters may be left off the sequences shown. Each block holds one binder with its values, some of them ahead of it.

Legend:
FLAG-SCAF4 (human) = biological target: T1, FLAG-SCAF4 (human) (UniProt O95104); assay: affinity purification with mass spectrometry; SCAF4 or SCAF8 ELCAP-MS: double IP (FLAG IP, 3xFLAG peptide elution, then RNAPII 4H8 IP) from Benzonase-treated chromatin extract; label-free, two biological replicates, triplicate injection; control: parental HEK293 cells
T1 sequence: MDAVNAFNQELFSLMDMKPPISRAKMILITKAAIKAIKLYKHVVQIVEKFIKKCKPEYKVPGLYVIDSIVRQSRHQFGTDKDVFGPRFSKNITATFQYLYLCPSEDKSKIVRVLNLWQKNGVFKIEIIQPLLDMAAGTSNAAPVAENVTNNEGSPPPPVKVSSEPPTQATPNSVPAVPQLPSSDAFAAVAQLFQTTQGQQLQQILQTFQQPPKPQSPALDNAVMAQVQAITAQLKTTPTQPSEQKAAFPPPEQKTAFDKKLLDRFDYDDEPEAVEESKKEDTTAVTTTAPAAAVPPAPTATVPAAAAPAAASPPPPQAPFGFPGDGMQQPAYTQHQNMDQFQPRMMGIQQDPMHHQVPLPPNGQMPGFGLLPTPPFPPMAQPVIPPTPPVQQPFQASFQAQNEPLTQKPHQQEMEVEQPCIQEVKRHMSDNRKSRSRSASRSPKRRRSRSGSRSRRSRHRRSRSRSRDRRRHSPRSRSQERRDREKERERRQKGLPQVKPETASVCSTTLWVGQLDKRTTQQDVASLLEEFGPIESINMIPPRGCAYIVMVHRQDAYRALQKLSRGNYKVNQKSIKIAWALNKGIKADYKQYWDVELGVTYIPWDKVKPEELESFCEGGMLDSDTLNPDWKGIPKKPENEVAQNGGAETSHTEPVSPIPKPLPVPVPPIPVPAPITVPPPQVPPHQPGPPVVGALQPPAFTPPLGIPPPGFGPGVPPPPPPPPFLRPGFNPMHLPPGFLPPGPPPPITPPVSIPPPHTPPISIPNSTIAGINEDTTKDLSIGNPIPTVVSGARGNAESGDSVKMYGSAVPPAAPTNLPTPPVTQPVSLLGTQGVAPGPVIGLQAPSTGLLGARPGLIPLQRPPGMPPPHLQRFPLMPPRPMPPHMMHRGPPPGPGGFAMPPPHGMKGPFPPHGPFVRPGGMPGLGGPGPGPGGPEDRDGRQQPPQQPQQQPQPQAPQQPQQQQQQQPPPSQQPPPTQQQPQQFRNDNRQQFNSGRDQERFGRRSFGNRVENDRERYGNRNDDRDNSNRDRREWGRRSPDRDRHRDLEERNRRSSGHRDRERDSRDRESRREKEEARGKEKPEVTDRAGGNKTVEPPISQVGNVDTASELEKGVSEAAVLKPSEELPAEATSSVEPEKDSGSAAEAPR

FLAG-SCAF8 (human) = biological target: T2, FLAG-SCAF8 (human) (UniProt Q9UPN6); assay: as above
T2 sequence: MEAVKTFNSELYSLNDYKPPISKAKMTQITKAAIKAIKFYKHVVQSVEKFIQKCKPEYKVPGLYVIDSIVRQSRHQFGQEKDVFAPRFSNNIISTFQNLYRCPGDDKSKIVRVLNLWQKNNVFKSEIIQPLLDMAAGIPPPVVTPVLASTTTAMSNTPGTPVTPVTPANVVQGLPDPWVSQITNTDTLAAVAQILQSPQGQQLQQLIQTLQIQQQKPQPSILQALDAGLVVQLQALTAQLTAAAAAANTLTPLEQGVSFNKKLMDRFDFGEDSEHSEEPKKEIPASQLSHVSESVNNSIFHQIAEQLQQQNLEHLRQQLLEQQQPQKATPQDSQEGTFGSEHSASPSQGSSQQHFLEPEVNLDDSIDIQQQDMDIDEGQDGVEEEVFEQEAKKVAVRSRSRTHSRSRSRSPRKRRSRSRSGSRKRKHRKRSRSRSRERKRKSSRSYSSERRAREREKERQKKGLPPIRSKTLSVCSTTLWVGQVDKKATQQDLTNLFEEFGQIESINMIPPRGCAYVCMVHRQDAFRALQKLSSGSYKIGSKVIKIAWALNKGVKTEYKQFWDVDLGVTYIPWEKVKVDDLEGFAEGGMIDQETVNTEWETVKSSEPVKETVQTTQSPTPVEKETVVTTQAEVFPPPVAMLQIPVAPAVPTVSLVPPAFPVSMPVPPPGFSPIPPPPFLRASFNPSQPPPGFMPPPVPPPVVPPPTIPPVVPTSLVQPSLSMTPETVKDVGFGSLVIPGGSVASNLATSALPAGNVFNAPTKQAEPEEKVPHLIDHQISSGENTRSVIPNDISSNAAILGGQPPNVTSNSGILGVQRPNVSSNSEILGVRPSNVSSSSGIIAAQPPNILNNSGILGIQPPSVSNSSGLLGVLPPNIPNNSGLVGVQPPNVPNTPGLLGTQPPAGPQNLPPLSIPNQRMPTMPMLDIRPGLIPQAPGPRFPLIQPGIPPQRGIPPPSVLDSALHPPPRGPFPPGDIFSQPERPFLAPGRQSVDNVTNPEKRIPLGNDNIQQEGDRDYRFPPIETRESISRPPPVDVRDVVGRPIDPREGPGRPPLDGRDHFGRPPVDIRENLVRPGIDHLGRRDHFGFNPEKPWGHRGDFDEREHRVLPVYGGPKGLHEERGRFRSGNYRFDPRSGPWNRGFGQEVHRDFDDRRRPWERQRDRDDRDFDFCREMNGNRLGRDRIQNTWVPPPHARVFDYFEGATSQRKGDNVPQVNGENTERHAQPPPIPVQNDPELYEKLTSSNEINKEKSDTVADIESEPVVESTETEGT

binding (FLAG-SCAF4 (human)): no binding | binding (FLAG-SCAF8 (human)): no binding
B1: MATR3 (protein, UniProt P43243 1-847)
chain: MSKSFQQSSLSRDSQGHGRDLSAAGIGLLAAATQSLSMPASLGRMNQGTARLASLMNLGMSSSLNQQGAHSALSSASTSSHNLQSIFNIGSRGPLPLSSQHRGDADQASNILASFGLSARDLDELSRYPEDKITPENLPQILLQLKRRRTEEGPTLSYGRDGRSATREPPYRVPRDDWEEKRHFRRDSFDDRGPSLNPVLDYDHGSRSQESGYYDRMDYEDDRLRDGERCRDDSFFGETSHNYHKFDSEYERMGRGPGPLQERSLFEKKRGAPPSSNIEDFHGLLPKGYPHLCSICDLPVHSNKEWSQHINGASHSRRCQLLLEIYPEWNPDNDTGHTMGDPFMLQQSTNPAPGILGPPPPSFHLGGPAVGPRGNLGAGNGNLQGPRHMQKGRVETSRVVHIMDFQRGKNLRYQLLQLVEPFGVISNHLILNKINEAFIEMATTEDAQAAVDYYTTTPALVFGKPVRVHLSQKYKRIKKPEGKPDQKFDQKQELGRVIHLSNLPHSGYSDSAVLKLAEPYGKIKNYILMRMKSQAFIEMETREDAMAMVDHCLKKALWFQGRCVKVDLSEKYKKLVLRIPNRGIDLLKKDKSRKRSYSPDGKESPSDKKSKTDGSQKTESSTEGKEQEEKSGEDGEKDTKDDQTEQEPNMLLESEDELLVDEEEAAALLESGSSVGDETDLANLGDVASDGKKEPSDKAVKKDGSASAAAKKKLKKVDKIEELDQENEAALENGIKNEENTEPGAESSENADDPNKDTSENADGQSDENKDDYTIPDEYRIGPYQPNVPVGIDYVIPKTGFYCKLCSLFYTNEEVAKNTHCSSLPHYQKLKKFLNKLAEERRQKKET

binding (FLAG-SCAF4 (human)): no binding | binding (FLAG-SCAF8 (human)): no binding
B2: CHERP (protein, UniProt Q8IWX8 1-916)
chain: MEMPLPPDDQELRNVIDKLAQFVARNGPEFEKMTMEKQKDNPKFSFLFGGEFYSYYKCKLALEQQQLICKQQTPELEPAATMPPLPQPPLAPAAPIPPAQGAPSMDELIQQSQWNLQQQEQHLLALRQEQVTAAVAHAVEQQMQKLLEETQLDMNEFDNLLQPIIDTCTKDAISAGKNWMFSNAKSPPHCELMAGHLRNRITADGAHFELRLHLIYLINDVLHHCQRKQARELLAALQKVVVPIYCTSFLAVEEDKQQKIARLLQLWEKNGYFDDSIIQQLQSPALGLGQYQATLINEYSSVVQPVQLAFQQQIQTLKTQHEEFVTSLAQQQQQQQQQQQQLQMPQMEAEVKATPPPPAPPPAPAPAPAIPPTTQPDDSKPPIQMPGSSEYEAPGGVQDPAAAGPRGPGPHDQIPPNKPPWFDQPHPVAPWGQQQPPEQPPYPHHQGGPPHCPPWNNSHEGMWGEQRGDPGWNGQRDAPWNNQPDAAWNSQFEGPWNSQHEQPPWGGGQREPPFRMQRPPHFRGPFPPHQQHPQFNQPPHPHNFNRFPPRFMQDDFPPRHPFERPPYPHRFDYPQGDFPAEMGPPHHHPGHRMPHPGINEHPPWAGPQHPDFGPPPHGFNGQPPHMRRQGPPHINHDDPSLVPNVPYFDLPAGLMAPLVKLEDHEYKPLDPKDIRLPPPMPPSERLLAAVEAFYSPPSHDRPRNSEGWEQNGLYEFFRAKMRARRRKGQEKRNSGPSRSRSRSKSRGRSSSRSNSRSSKSSGSYSRSRSRSCSRSYSRSRSRSRSRSRSSRSRSRSQSRSRSKSYSPGRRRRSRSRSPTPPSSAGLGSNSAPPIPDSRLGEENKGHQMLVKMGWSGSGGLGAKEQGIQDPIKGGDVRDKWDQYKGVGVALDDPYENYRRNKSYSFIARMKARDECK
